# Measurements: article PMC8106974 (Psychopharmacology, 2020)
# Where a name gives a salt, the structure may show the parent alone.
# Test system: male Sprague Dawley rats
# Experiment: Whole body plethysmography, minute volume with increasing CO2 exposure
# Assay type: in vivo
# Conditions: morphine 3.2-32 mg/kg, 0, 4, 6, 8% CO2
smiles,measurement,value
"CN1CC[C@]23c4c5ccc(O)c4O[C@H]2[C@@H](O)C=C[C@H]3[C@H]1C5 [morphine, Morphine sulfate]",minute volume (MV) relative to saline controls with increasing CO2 exposure,dose-dependent decreases in MV
